Among the data in the supplement of paper PMC10398353 are normalized bacterial growth values, retold here.

Structures are written as SMILES. Where “and” joins values, the source holds several entries; their conditions need not be identical. Identical values can stand only once. Counter-ions that a name gives are not always drawn. ± gives the standard deviation of the averaged measurements. The list shows a part of the results. Single values of this set are uncertain.

The subject of this assay is Salmonella enterica serovar Typhimurium ST313 D23580. Put plainly: normalized bacterial growth (OD600 20 h minus 0 h, interquartile-mean normalized) (fraction of plate interquartile mean); higher = more bacterial growth (less inhibition). To be noted: LPM (pH 5.8, low phosphate, low Mg2+), concentration: 10 µM, temperature: 37 °C.
Consider `c1ccc2[nH]c(-c3cscn3)nc2c1`, for which the normalized bacterial growth was 0.834.
`OC[C@@H](O)[C@@H](O[C@@H]1O[C@H](CO)[C@H](O)[C@H](O)[C@H]1O)[C@H](O)[C@@H](O)CO` yielded a normalized bacterial growth of 0.826.
In the case of `CN1[C@@H](CC(=O)c2ccccc2)CCC[C@H]1C[C@H](O)c1ccccc1` it was 0.953 and 1.
In the case of `CN1[C@@H](CC(=O)c2ccccc2)CCC[C@H]1C[C@H](O)c1ccccc1` [alpha-Lobeline hydrochloride] it was 0.721; in that of `CSc1nc(N)c2ncn([C@@H]3O[C@H](COP(=O)(O)OP(=O)(O)OP(=O)(O)O)[C@H](O)C3O)c2n1` (some centres undefined) [2-Methylthioadenosine triphosphate tetrasodium], 1.16.
`CC(=O)C(C)=O` ["2,3-Butanedione"]: the normalized bacterial growth was 0.976.
In the case of `O=c1c2cc(O)c(O)cc2oc2cc(O)c([C@@H]3O[C@H](CO)[C@@H](O)[C@H](O)[C@H]3O)c(O)c12` it was 0.913.
`COc1ccc(-c2cc(=O)c3c(O)cc(O[C@@H]4O[C@H](CO[C@@H]5O[C@@H](C)[C@H](O)[C@@H](O)[C@H]5O)[C@@H](O)[C@H](O)[C@H]4O)cc3o2)cc1O`: the normalized bacterial growth stood at 1.127 ± 0.0052.
Regarding `COC(=O)C[C@H]1C(C)(C)[C@@H](O)[C@@H]2CC3=C4CC(O)O[C@@H](c5ccoc5)[C@]4(C)CCC3[C@@]1(C)C2=O` (stereo partly drawn) ["3,16-DIDEOXYMEXICANOLIDE-3beta-DIOL"], the normalized bacterial growth stood at 0.914.
In the case of `Cc1cccc2c3c(ccc12)C1=C(C(=O)C3=O)[C@@H](C)CO1` it was 1.38.
For the compound `CN(C)CCCO[C@@H]1[C@H]2OC(C)(C)O[C@H]2O[C@@H]1[C@H](O)CO` [Amiprilose hydrochloride], the normalized bacterial growth was determined as 0.975 ± 0.092.
With `CN(C)CCCO[C@@H]1[C@H]2OC(C)(C)O[C@H]2O[C@@H]1[C@H](O)CO`, the normalized bacterial growth amounted to 0.968.
With `CCOc1ccc(C(=O)c2ccc(O)c(O)c2O)cc1` the figure was 0.832; with `OC1CCN2Cc3ccccc3N=C12` (centres undefined), 0.948; with `CCCCC(=O)O[C@]1(C(=O)CO)CC[C@H]2[C@@H]3CCC4=CC(=O)CC[C@]4(C)[C@H]3[C@@H](O)C[C@@]21C`, 0.839.
With `CCc1cccc2c3c([nH]c12)C(CC)(CC(=O)O)OCC3` (centres undefined) [Etodolac] the figure was 1.13.
Take `Cc1noc(NS(=O)(=O)c2ccc(N)cc2)c1C`: the normalized bacterial growth worked out at 0.651.
With `CC1=C(CC(=O)O)c2cc(F)ccc2/C1=C\c1ccc([S+](C)[O-])cc1` (centres undefined) [Sulindac] the figure was 0.858.
In the case of `OCC(O)C(O)C(O)C(O)C(O)CO` (centres undefined) it was 1.25; in that of `COc1cc(O)c(C)c(O)c1`, 0.88.
In the case of `NOCC(=O)O` [O-(Carboxymethyl)hydroxylamine hemihydrochloride] it was 1.11.
Compound `C[C@H](CCC(=O)O)[C@H]1CC[C@H]2[C@@H]3CC[C@@H]4CCCC[C@]4(C)[C@H]3CC[C@]12C` showed a normalized bacterial growth of 0.879.
In the case of `N=C(N)NC(=O)c1nc(Cl)c(N2CCCCCC2)nc1N` it was 0.839; in that of `CCOC(=O)[C@H](CCc1ccccc1)N[C@@H](C)C(=O)N1CCC[C@H]1C(=O)O`, 1.13.
With `CC(=O)N[C@@H](Cc1ccccc1)C(=O)O` the figure was 1.14.
With `Cn1nnnc1SCC1=C(C(=O)O)N2C(=O)[C@@H](NC(=O)[C@H](OC=O)c3ccccc3)[C@H]2SC1` the figure was 0.906; with `Cc1cccc2c3c(ccc12)C1=C(C(=O)C3=O)C(C)CO1` (centres undefined), 0.526; with `O=C(O)c1cc(O)c(=O)c2c(O)c(O)ccc2c1`, 1.03.
As for `CC(=O)Nc1ccc(O)cc1` [Acetaminophen], the normalized bacterial growth was 0.898.
With `C=CCSCC(N)C(=O)O` (centres undefined) the figure was 0.768; with `Nc1nc(SCc2ccc([N+](=O)[O-])cc2)c2ncn([C@@H]3O[C@H](CO)[C@H](O)C3O)c2n1` (stereo partly drawn) [S-(4-Nitrobenzyl)-6-thioguanosine], 0.908.
With `COC(=O)[C@@H]1OC(=O)C2OC23[C@@]1(C)CCC1[C@]2(C)C(C[C@H](O)[C@]13C)C(C)(C)[C@H](OC(C)=O)C[C@@H]2OC(C)=O` (stereo partly drawn) ["7beta-HYDROXY-7-DESACETOXYKHIVORINIC ACID, METHYL ESTER"] the figure was 0.858; with `COC(=O)C(C)c1ccc(C(=O)c2cccs2)cc1` (centres undefined), 0.858.
With `COc1ccc2[nH]c([S+]([O-])Cc3ncc(C)c(OC)c3C)nc2c1` (centres undefined) [Omeprazole] the figure was 1; with `COc1ccc2[nH]c([S+]([O-])Cc3ncc(C)c(OC)c3C)nc2c1` (centres undefined), 1.02.
The compound `CCCCC(CC)CN=C(N)N=C(N)NCCCCCCNC(N)=NC(N)=NCC(CC)CCCC` (centres undefined) returned a normalized bacterial growth of 0.188.
`Cc1cc(-n2c(=O)[nH]c(=O)n(C)c2=O)ccc1Oc1ccc(SC(F)(F)F)cc1` returned a normalized bacterial growth of 0.865.
In the case of `CCCn1c(=O)c2[nH]c(-c3ccc(S(=O)(=O)O)cc3)nc2n(CCC)c1=O` ["1,3-Dipropyl-8-p-sulfophenylxanthine"] it was 0.816; in that of `CC(C)CCC[C@@H](C)[C@H]1CC[C@H]2[C@@H]3C(=O)C=C4C[C@@H](O)CC[C@]4(C)[C@H]3CC[C@]12C`, 1.29; in that of `Cc1ccccc1N1C(=O)c2cc(S(N)(=O)=O)c(Cl)cc2NC1C` (centres undefined) [Metolazone], 0.963 ± 0.059.
In the case of `CO[C@H]1[C@H](O)[C@@H](O)[C@H](O)[C@H](O)[C@H]1O` it was 1.
Regarding `COc1ccc(-c2coc3c(OC)c(OC)cc(O)c3c2=O)cc1`, the normalized bacterial growth worked out at 0.884.
In the case of `O=C1N(c2ccccc2)c2ccccc2C1(Cc1ccncc1)Cc1ccncc1` [Linopirdine] it was 0.946.
In the case of `COc1ccc2c(c1)OCC(Cc1ccc(OC)c(OC(C)=O)c1)C2=O` (centres undefined) it was 0.418; in that of `OCCOCCN1CCN(C(c2ccccc2)c2ccc(Cl)cc2)CC1` (centres undefined), 0.864; in that of `OCCOCCN1CCN(C(c2ccccc2)c2ccc(Cl)cc2)CC1` (centres undefined) [Hydroxyzine dihydrochloride], 0.967.
As for `CC(CCC(=O)O)[C@H]1CCC2C3CC[C@@H]4CC(=O)CC[C@]4(C)C3C=C[C@@]21C` (some centres undefined), the normalized bacterial growth was 0.966.
As for `C=CC1=C(C(=O)O)N2C(=O)[C@@H](NC(=O)/C(=N\OCC(=O)O)c3csc(N)n3)[C@H]2SC1` [Cefixime], the normalized bacterial growth came out at 0.0355.
With `CC(=O)O[C@H]1C[C@@H](OC(C)=O)C(C)(C)C2C[C@@H](O)[C@]3(C)C(CC[C@@]4(C)[C@H](c5ccoc5)OC(=O)[C@H]5O[C@]543)[C@]21C` (some centres undefined) the figure was 0.744; with `C[C@H]1C[C@@H]2[C@H]([C@@H](O)C[C@@]3(C)[C@H]2CC[C@]3(O)C(=O)COC(=O)CCC(=O)O)[C@@]2(C)C=CC(=O)C=C12`, 1.08; with `Nc1cc(-c2ccncc2)c[nH]c1=O`, 0.863.
In the case of `c1ccc2c(c1)CCCc1cc(NCCN3CCOCC3)nnc1-2` it was 0.918.
In the case of `CC(N)C12CC3CC(CC(C3)C1)C2` (centres undefined) it was 0.911.
With `COC(=O)C(N)CS` (centres undefined), the normalized bacterial growth came to 1.05.
With `CN(C)CC[C@@H](c1ccc(Cl)cc1)c1ccccn1` the figure was 0.946; with `CN(CCOc1ccc(CC2SC(=O)NC2=O)cc1)c1ccccn1` (centres undefined), 0.913.
With `CCC(=O)OCC(=O)[C@@]1(OC(=O)CC)[C@H](C)C[C@H]2[C@H]3[C@H]([C@@H](O)C[C@@]21C)[C@@]1(C)C=CC(=O)C=C1C[C@H]3Cl` [Alclometasone dipropionate] the figure was 0.699; with `O=C(CC(=O)c1ccccc1)c1ccccc1`, 0.938; with `O=C(OCc1ccccc1)c1ccccc1`, 0.915.
With `N#C/C(=C\c1ccc(O)c(O)c1)C(=O)NCCCNC(=O)/C(C#N)=C/c1ccc(O)c(O)c1` [Tyrphostin AG 537] the figure was 1.2.
Turning to `N=C(N)N/N=C/c1c(Cl)cccc1Cl` [Guanabenz acetate], the normalized bacterial growth was determined as 0.892.
With `N=C(N)N/N=C/c1c(Cl)cccc1Cl` the figure was 0.8.
Compound `OC(CCN1CCCCC1)(c1ccccc1)C1CCCCC1` (centres undefined) [Trihexyphenidyl hydrochloride] had a normalized bacterial growth of 1.1.
`Cc1cc(O)c(C=O)c2c1C(=O)Oc1c(COC(=O)/C=C/C(=O)O)c(O)c(C(=O)O)c(C)c1O2` had a normalized bacterial growth of 0.871.
In the case of `CN(C)CCOC(=O)COc1ccc(Cl)cc1` [Centrophenoxine hydrochloride] it was 1.31.
In the case of `Brc1c(NC2=NCCN2)ccc2nccnc12` it was 0.553; in that of `COc1ccc(-c2cc(C(F)F)nn2-c2ccc(S(N)(=O)=O)cc2)cc1F`, 0.906; in that of `CC(Oc1ccccc1)C(=O)N[C@@H]1C(=O)N2[C@@H]1SC(C)(C)[C@@H]2C(=O)O` (some centres undefined), 1.12.
Take `CC(C)NC[C@H](O)c1ccc(O)c(O)c1` [R(-)-Isoproterenol (+)-bitartrate]: the normalized bacterial growth was 0.777.
In the case of `COc1cc(C(=O)O[C@H]2C/C(C)=C/CC/C(C)=C/[C@H](O)[C@@H]2C(C)C)ccc1O` it was 0.905.
In the case of `C[C@@H]1CC[C@@]2(OC1)O[C@H]1C[C@H]3[C@@H]4CC[C@@H]5C[C@@H](O)CC[C@]5(C)[C@H]4CC[C@]3(C)[C@H]1[C@@H]2C` it was 0.901.
With `NCCS(=O)O` [Hypotaurine] the figure was 1.25; with `N[C@@H](C(=O)N[C@@H]1C(=O)N2C(C(=O)O)=C(Cl)CS[C@H]12)c1ccccc1` [Cefaclor], 1.35 ± 0.088; with `N[C@@H](C(=O)N[C@@H]1C(=O)N2C(C(=O)O)=C(Cl)CS[C@H]12)c1ccccc1`, 1.03.
In the case of `CN1CCC[C@@H]1c1cccnc1.Cc1ccc(C(=O)O[C@H](C(=O)O)[C@@H](OC(=O)c2ccc(C)cc2)C(=O)O)cc1` [(+)-Nicotine (+)-di-p-toluoyl tartrate], the normalized bacterial growth is 1.13.
With `Cn1c([N+](=O)[O-])cnc1COC(N)=O` the figure was 1.07; with `NC(N)=O`, 1.11; with `CN(C)[C@@H]1C(O)=C(C(N)=O)C(=O)[C@@]2(O)C(O)=C3C(=O)c4c(O)ccc(Cl)c4[C@@H](O)[C@H]3C[C@@H]12` [Demeclocycline hydrochloride], 0.00794.
In the case of `O=C(O)/C(=C\c1c(C(=O)O)[nH]c2cc(Cl)cc(Cl)c12)c1ccccc1` it was 0.734.
For `Clc1ccc(COC(Cn2ccnc2)c2ccc(Cl)cc2Cl)c(Cl)c1` (centres undefined) [Miconazole], the normalized bacterial growth came out at 0.858.
With `Clc1ccc(COC(Cn2ccnc2)c2ccc(Cl)cc2Cl)c(Cl)c1` (centres undefined) the figure was 0.975; with `NCC=CC(=O)O` (stereo in doubt) [cis-4-Aminocrotonic acid], 0.929; with `Cc1cc(=O)n(-c2ccccc2)n1C`, 0.986.
Regarding `CC(=O)[C@H]1CC[C@H]2[C@@H]3CC=C4C[C@@H](OS(=O)(=O)O)CC[C@]4(C)[C@H]3CC[C@]12C` [Pregnenolone sulfate sodium], the normalized bacterial growth came out at 0.946.
